Measured values reported in patent publication US20230057602A1, “METHODS OF TREATMENT WITH ANTIBODIES AGAINST BCMA AND CD3” (BRISTOL-MYERS SQUIBB COMPANY, priority 2019, published 2023).
At least one compound was matched to its structure with a doubt left.

Columns and labels:
[1] = tested on: CD4 and CD8 T cells co-cultured with tumor cell lines; test: CC-93269-induced T cell activation and proliferation; type: cell-based, human; details: co-treatment with CC-93269
[2] = tested on: BCMA-expressing tumour cell lines co-cultured with T-cells; test: CC-93269-mediated cytokine release across the four co-cultures; type: cell-based, human; details: co-treatment with CC-93269

`C[C@@H]1C[C@H]2[C@@H]3CCC4=CC(=O)C=C[C@]4(C)[C@@]3(F)[C@@H](O)C[C@]2(C)[C@@]1(O)C(=O)CO` [Dexamethasone, dexamethasone] was tested, and the “effect of dexamethasone on CC-93269-induced CD4 and CD8 T cell activation” value [1] was “minimally affected”, the “effect of dexamethasone on CC-93269-induced CD4 and CD8 T cell proliferation” value [1] was “minimally affected” and the “effect of dexamethasone co-treatment on cytokine secretion” value [2] was “strongly suppressed”.
